± gives the standard deviation of the averaged measurements. This is a selection; strong and weak results do not stand in their true shares. Most entries show no effect beyond the scatter of the controls.
Compound: Nc1ncnc2c1ncn2[C@@H]1O[C@H](COP(=O)(O)OP(=O)(O)NP(=O)(O)O)[C@@H](O)[C@H]1O [adenylyl imidodiphosphate]
Experiment: NP40-soluble protein abundance relative to vehicle (solubility fold change) (ratio); higher = more soluble protein in presence of AMP-PNP
Summary of the method: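 Data come from three independent experiments in which Dounce-homogenised Jurkat crude lysate was treated at eight concentrations from 0.1 to 10 mM. Treatment ran 10 min at room temperature and then 3 min at 37 °C, after which 0.8% NP40 and benzonase were added for 60 min at 4 °C before ultracentrifugation. The supernatant underwent TMT labelling and LC-MS/MS, and vsn-normalised intensities were expressed as fold change against the detergent-processed vehicle in each replicate.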

The chains behind the UniProt entries cited, without tags or fusion partners. Where a name states a change or a piece, a line headed by the entry shows the natural chain unless it says otherwise.
UniProt Q9BYX2: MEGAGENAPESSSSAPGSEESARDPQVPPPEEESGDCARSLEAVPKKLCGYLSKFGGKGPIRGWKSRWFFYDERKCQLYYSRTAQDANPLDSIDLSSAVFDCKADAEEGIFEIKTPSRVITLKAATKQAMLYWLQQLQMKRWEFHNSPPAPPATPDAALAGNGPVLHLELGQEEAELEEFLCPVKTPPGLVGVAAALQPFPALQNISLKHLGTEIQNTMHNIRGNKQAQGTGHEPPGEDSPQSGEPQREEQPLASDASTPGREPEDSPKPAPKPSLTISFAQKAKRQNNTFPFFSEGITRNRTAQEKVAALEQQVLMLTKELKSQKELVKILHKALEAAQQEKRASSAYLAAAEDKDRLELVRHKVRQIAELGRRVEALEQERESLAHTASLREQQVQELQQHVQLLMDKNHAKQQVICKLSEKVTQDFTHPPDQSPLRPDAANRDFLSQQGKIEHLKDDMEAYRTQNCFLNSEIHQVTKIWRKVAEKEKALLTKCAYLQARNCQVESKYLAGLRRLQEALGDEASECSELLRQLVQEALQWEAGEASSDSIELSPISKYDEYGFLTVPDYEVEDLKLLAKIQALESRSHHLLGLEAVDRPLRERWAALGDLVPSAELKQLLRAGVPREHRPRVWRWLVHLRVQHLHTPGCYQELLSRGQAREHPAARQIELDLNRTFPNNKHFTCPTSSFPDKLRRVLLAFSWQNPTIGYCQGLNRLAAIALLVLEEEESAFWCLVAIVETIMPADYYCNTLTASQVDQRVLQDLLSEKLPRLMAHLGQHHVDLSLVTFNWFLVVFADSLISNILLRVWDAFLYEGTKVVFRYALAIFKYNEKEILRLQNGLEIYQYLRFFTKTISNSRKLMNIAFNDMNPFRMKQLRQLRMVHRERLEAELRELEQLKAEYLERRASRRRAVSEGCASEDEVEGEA
UniProt Q9BX40: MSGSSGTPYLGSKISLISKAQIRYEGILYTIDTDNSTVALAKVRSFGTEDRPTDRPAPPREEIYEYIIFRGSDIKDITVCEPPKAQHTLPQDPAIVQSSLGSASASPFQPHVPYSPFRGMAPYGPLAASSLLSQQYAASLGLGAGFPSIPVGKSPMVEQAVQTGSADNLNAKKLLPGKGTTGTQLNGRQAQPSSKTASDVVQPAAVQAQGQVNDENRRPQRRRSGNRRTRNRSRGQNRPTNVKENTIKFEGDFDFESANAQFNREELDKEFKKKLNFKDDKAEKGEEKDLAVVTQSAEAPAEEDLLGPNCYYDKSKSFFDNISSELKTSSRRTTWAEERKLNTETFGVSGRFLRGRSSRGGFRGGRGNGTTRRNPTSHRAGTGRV
UniProt Q9BTT4: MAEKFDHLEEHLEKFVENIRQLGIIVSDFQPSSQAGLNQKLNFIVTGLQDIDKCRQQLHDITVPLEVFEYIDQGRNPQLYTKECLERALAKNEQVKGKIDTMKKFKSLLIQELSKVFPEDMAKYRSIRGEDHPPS
UniProt Q9BV81: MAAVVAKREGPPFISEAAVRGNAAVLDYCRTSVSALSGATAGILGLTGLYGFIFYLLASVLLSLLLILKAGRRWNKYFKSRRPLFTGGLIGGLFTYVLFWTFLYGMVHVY
UniProt Q9BXJ9: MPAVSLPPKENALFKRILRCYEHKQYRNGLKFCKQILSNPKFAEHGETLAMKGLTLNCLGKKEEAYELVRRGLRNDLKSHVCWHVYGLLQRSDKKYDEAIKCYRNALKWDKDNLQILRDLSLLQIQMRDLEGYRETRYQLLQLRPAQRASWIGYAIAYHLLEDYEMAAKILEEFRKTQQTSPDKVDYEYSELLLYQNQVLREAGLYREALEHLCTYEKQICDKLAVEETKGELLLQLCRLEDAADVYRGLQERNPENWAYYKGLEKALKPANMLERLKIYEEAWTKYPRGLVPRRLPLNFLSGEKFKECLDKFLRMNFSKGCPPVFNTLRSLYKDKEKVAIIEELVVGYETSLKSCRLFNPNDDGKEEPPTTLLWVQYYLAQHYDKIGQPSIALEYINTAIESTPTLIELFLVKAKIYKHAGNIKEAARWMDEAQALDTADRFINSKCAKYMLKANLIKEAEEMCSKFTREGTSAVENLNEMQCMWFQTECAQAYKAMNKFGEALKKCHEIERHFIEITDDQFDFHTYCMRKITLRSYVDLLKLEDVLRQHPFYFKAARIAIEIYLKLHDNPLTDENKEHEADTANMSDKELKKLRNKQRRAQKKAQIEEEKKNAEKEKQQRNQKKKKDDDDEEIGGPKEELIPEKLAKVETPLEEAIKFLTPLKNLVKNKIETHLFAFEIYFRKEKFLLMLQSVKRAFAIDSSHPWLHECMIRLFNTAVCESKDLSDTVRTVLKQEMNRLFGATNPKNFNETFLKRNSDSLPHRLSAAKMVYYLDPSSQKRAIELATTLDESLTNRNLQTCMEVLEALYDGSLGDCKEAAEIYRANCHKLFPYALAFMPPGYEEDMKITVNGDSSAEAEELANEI
UniProt Q9BYJ9: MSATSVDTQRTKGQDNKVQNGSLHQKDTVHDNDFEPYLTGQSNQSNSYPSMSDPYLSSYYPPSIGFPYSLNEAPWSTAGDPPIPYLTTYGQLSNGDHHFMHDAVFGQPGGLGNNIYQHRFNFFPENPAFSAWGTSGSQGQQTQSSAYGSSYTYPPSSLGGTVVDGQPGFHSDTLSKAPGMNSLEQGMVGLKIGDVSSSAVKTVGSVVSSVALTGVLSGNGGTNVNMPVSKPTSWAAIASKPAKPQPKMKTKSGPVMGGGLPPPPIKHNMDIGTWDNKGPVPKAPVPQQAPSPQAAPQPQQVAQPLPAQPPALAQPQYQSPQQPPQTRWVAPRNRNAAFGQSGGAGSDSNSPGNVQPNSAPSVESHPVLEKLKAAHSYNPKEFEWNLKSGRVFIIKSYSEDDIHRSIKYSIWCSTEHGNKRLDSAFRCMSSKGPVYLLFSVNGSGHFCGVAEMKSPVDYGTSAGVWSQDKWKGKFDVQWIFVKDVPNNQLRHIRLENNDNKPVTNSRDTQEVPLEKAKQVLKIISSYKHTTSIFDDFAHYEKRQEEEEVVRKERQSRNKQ
UniProt Q99873, whole entry, looked up: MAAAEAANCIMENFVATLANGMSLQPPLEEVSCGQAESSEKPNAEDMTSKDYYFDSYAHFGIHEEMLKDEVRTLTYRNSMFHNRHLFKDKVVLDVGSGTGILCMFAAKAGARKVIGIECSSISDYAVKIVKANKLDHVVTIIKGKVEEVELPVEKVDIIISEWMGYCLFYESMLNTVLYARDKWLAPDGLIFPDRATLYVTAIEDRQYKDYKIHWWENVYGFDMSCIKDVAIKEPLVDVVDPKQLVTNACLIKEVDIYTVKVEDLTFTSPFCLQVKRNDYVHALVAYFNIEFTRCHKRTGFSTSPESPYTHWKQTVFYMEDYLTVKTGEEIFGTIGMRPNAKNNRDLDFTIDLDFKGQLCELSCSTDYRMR
UniProt Q9BTE7: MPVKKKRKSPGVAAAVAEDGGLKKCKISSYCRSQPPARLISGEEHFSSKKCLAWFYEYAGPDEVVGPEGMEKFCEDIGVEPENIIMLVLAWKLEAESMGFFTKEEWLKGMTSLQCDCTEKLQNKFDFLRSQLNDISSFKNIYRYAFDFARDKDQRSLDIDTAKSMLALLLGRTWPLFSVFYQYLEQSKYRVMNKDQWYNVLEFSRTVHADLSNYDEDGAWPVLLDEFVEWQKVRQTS
UniProt Q9BUJ2: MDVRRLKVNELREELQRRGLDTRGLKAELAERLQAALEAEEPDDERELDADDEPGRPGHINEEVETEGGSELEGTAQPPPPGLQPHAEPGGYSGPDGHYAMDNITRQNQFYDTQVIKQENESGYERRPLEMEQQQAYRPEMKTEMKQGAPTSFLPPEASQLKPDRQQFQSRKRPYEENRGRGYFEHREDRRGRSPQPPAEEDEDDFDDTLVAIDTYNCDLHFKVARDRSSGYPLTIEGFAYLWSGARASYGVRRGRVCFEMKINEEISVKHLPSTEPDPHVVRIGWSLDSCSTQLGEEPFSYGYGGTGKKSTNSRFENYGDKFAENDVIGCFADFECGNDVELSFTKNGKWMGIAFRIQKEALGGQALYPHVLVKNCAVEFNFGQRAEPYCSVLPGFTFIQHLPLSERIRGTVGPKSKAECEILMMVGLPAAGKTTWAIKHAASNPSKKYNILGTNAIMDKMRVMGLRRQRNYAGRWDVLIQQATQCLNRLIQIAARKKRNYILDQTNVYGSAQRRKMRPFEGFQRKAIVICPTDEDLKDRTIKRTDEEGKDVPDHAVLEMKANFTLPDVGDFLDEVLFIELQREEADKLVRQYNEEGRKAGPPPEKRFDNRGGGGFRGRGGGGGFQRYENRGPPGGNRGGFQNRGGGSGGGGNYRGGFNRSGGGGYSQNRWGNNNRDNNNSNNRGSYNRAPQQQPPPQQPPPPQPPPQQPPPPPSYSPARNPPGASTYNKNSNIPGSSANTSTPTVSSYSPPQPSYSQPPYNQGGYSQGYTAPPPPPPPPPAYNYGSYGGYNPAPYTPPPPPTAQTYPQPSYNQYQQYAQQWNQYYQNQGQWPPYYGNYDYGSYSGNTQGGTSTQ
UniProt Q9BV19: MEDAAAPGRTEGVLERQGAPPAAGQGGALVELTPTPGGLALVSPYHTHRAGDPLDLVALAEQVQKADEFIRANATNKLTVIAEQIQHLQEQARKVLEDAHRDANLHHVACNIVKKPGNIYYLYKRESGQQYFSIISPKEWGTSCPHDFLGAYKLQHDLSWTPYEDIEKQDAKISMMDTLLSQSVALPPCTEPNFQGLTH
UniProt Q9BW62: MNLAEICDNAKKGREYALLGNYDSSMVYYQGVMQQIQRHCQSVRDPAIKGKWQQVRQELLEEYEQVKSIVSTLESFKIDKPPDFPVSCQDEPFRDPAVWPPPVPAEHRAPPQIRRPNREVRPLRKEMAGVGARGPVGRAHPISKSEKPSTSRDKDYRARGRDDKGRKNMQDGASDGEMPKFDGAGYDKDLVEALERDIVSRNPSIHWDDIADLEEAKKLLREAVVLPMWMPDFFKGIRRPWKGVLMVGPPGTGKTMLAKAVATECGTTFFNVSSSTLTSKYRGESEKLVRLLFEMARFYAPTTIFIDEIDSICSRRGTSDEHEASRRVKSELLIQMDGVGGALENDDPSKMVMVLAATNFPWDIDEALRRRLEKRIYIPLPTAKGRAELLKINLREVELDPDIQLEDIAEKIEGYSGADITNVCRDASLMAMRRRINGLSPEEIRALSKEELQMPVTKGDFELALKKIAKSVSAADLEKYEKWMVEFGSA
UniProt Q99447: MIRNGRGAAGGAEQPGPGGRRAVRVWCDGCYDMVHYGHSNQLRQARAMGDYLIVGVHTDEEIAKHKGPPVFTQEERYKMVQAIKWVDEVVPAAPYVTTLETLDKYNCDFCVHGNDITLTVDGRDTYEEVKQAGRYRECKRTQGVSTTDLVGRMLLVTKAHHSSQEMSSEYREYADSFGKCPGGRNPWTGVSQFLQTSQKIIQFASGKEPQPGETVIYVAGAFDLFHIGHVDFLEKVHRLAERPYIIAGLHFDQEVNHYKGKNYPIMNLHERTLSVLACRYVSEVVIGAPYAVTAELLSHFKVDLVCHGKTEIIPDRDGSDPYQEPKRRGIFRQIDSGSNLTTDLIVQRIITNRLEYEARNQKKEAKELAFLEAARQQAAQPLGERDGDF
UniProt Q99598: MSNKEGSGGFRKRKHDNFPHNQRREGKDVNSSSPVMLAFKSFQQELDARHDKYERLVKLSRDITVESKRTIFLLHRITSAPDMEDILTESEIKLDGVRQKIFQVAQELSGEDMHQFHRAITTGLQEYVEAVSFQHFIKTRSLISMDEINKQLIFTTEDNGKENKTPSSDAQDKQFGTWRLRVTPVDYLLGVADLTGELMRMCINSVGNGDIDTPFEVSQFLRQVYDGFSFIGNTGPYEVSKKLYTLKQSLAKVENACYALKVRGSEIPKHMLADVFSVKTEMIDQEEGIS
UniProt Q9BRR6: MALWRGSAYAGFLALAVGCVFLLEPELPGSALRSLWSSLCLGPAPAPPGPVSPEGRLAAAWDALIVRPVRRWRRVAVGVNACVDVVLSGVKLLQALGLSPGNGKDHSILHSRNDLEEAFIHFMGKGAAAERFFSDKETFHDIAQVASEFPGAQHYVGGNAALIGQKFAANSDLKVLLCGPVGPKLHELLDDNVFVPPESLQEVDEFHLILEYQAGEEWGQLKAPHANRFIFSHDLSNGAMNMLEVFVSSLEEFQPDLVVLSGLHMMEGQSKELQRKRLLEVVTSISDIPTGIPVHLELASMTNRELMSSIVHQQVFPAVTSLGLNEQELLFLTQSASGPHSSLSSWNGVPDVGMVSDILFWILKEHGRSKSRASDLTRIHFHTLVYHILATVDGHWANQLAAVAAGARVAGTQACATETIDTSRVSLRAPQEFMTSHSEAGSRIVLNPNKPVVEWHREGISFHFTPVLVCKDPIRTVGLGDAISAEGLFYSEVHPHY
UniProt Q9BVK6: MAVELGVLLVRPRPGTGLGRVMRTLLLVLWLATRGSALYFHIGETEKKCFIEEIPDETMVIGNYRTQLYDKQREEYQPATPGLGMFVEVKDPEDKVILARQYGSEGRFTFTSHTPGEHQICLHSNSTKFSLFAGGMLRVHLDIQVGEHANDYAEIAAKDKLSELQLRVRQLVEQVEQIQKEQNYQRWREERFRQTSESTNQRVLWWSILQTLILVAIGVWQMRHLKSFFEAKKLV

Target	NP40-soluble protein abundance (concentration: 0.1mM)	NP40-soluble protein abundance (concentration: 0.5mM)
UniProt Q9BUH6	1.01 ± 0.011	1.04 ± 0.019
SRXN1 (UniProt Q9BYN0)	1.05 ± 0.036	1.04 ± 0.022
TCF25 (UniProt Q9BQ70)	1.07 ± 0.13	1.01 ± 0.031
RANBP9 (UniProt Q96S59)	0.974 ± 0.061	0.982 ± 0.039
SORT1 (UniProt Q99523)	0.98 ± 0.04	0.996 ± 0.052
UniProt Q9BYX2 and related entries	0.999 ± 0.013	0.981 ± 0.044
UniProt Q99707 and related entries	1 ± 0.012	0.967 ± 0.037
UniProt Q9BYD6 and related entries	1.04 ± 0.097	1.06 ± 0.023
UniProt Q99729-3	0.959 ± 0.068	0.997 ± 0.062
UniProt Q96RP9 and related entries	0.9869 ± 0.0078	0.984 ± 0.03
UniProt Q99623	0.998 ± 0.026	1.01 ± 0.023
UniProt Q9BTT0 and related entries	0.979 ± 0.016	1.03 ± 0.029
UniProt Q96S55 and related entries	1.04 ± 0.055	0.998 ± 0.051
UniProt Q9BX40 and related entries	1.01 ± 0.038	1.04 ± 0.025
MED10 (UniProt Q9BTT4)	1 ± 0.0065	1.03 ± 0.021
UniProt Q9BV81	0.99 ± 0.036	0.965 ± 0.019
UniProt Q9BXJ9	1.02 ± 0.027	1 ± 0.032
UniProt Q99653	0.984 ± 0.022	1 ± 0.025
UniProt Q9BXP5-3|Q9BXP5-4	1.04 ± 0.033	1.06 ± 0.025
NUP88 (UniProt Q99567)	0.985 ± 0.042	0.965 ± 0.038

Target	NP40-soluble protein abundance (concentration: 0.1mM)	NP40-soluble protein abundance (concentration: 0.5mM)
UniProt Q9BZE1 and related entries	1.03 ± 0.043	1.03 ± 0.069
UniProt Q96ST2 and related entries	0.98 ± 0.055	1 ± 0.05
UniProt Q99504 and related entries	0.97 ± 0.053	1.02 ± 0.033
PSMD1 (UniProt Q99460)	0.974 ± 0.04	0.952 ± 0.079
ALG1 (UniProt Q9BT22)	1.02 ± 0.052	0.946 ± 0.046
NEU1 (UniProt Q99519)	0.991 ± 0.021	1.03 ± 0.018
YTHDF1 (UniProt Q9BYJ9)	1 ± 0.022	1.03 ± 0.029
UniProt Q9BTT6	1.01 ± 0.022	0.99451 ± 0.00076
ARID3A (UniProt Q99856)	0.971 ± 0.025	0.983 ± 0.029
UniProt Q99873-3|Q99873-4	1.04 ± 0.086	0.994 ± 0.21
IFT140 (UniProt Q96RY7)	1.02 ± 0.035	0.968 ± 0.037
UniProt Q9BXM9 and related entries	0.982 ± 0.053	1.03 ± 0.031
DCUN1D5 (UniProt Q9BTE7)	0.992 ± 0.012	0.978 ± 0.041
TARS2 (UniProt Q9BW92)	1.02 ± 0.018	0.965 ± 0.064
PIK3R4 (UniProt Q99570)	0.967 ± 0.049	0.965 ± 0.053
UniProt Q9BYT3 and related entries	0.969 ± 0.027	1 ± 0.02
UniProt Q96SK2 and related entries	1.01 ± 0.02	1.03 ± 0.025
UniProt Q99733 and related entries	1.01 ± 0.021	1.04 ± 0.082
UniProt Q9BUJ2 and related entries	1.03 ± 0.026	1.02 ± 0.049
PSMG3 (UniProt Q9BT73)	1.02 ± 0.05	0.9906 ± 0.0092

Given field by field: part of the list above.
UniProt Q9BZE1 and related entries
  NP40-soluble protein abundance (concentration: 0.1mM): 1.03 ± 0.043
  NP40-soluble protein abundance (concentration: 0.5mM): 1.03 ± 0.069
NEU1 (UniProt Q99519)
  NP40-soluble protein abundance (concentration: 0.1mM): 0.991 ± 0.021
  NP40-soluble protein abundance (concentration: 0.5mM): 1.03 ± 0.018
DCUN1D5 (UniProt Q9BTE7)
  NP40-soluble protein abundance (concentration: 0.1mM): 0.992 ± 0.012
  NP40-soluble protein abundance (concentration: 0.5mM): 0.978 ± 0.041

(cont.)

Target	NP40-soluble protein abundance (concentration: 0.1mM)	NP40-soluble protein abundance (concentration: 0.5mM)
C1orf50 (UniProt Q9BV19)	1.03 ± 0.041	1.03 ± 0.055
NIPSNAP1 (UniProt Q9BPW8)	1.03 ± 0.046	0.996 ± 0.096
KATNAL1 (UniProt Q9BW62)	1 ± 0.061	0.978 ± 0.018
MACROD1 (UniProt Q9BQ69)	1 ± 0.052	1.01 ± 0.036
SPAG5 (UniProt Q96R06)	0.981 ± 0.01	0.9848 ± 0.0033
UniProt Q96SD1 and related entries	0.963 ± 0.011	1.01 ± 0.042
NACC1 (UniProt Q96RE7)	0.996 ± 0.011	0.99 ± 0.042
UBAC1 (UniProt Q9BSL1)	0.969 ± 0.033	0.964 ± 0.018
PARD6B (UniProt Q9BYG5)	1.03 ± 0.015	1 ± 0.014
UniProt Q99447 and related entries	1.01 ± 0.059	0.96 ± 0.08
UniProt Q9BUB5 and related entries	1.02 ± 0.038	1.04 ± 0.044
TSNAX (UniProt Q99598)	0.996 ± 0.012	0.999 ± 0.018
UniProt Q9BRR6 and related entries	1.04 ± 0.062	1 ± 0.082
UniProt Q99538 and related entries	0.971 ± 0.066	1.01 ± 0.06
CABLES2 (UniProt Q9BTV7)	0.998 ± 0.014	1.001 ± 0.0073
TMED9 (UniProt Q9BVK6)	0.998 ± 0.024	1.02 ± 0.037
UniProt Q9BSH4	0.985 ± 0.012	0.988 ± 0.027
UniProt Q9BX66-10|Q9BX66-12|Q9BX66-4|Q9BX66-5|Q9BX66-6|Q9BX66-8|Q9BX66-9	0.993 ± 0.014	0.969 ± 0.023
HDHD3 (UniProt Q9BSH5)	1.049 ± 0.005	1.01 ± 0.016

— the supplement of paper PMC6411743
